Assay results: PubChem BioAssay AID540317 (National Center for Advancing Translational Sciences (NCATS), 2011)
This list holds what a sample rich in hits left over. Records with an inconclusive call do not appear. The source made the active and inactive calls. The call rests on the fitted dose curve; in most records, active means well fitted inhibition curve with a large enough effect; inconclusive means small, poorly fitted or top-dose-only effect; inactive means no such curve, though single readings can be large or run the other way.

The chains behind the UniProt entries cited, without tags or fusion partners.
UniProt P83916, whole entry, looked up: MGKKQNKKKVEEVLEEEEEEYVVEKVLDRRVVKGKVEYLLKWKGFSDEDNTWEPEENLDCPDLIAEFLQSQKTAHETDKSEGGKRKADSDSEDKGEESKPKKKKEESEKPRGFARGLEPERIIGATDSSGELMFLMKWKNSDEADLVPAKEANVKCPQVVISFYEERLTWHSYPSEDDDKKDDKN

Target: Chromobox protein homolog 1 (Homo sapiens) (UniProt P83916)
Test: HTS for Inhibitors of HP1-beta Chromodomain Interactions with Methylated Histone Tails; further: nearly all actives have a fitted effect of over 70% in size
Settings: AlphaScreen HP1-beta / biotin-H3K9me3 peptide binding; at 114 µM (top of the series)
Source text: As our understanding of epigenetics expands, it is becoming clear that players in this field are potential targets for drug development. This area of epigenetic therapy has established applications for the treatment of cancer and neurological diseases. We have been involved in this field for a number of years and have performed high-throughput screens to identify the first small molecule inhibitors of protein methyltransferases. These methyltransferases target multiple substrates, and thus regulate many arms of an epigenetic pathway. The methylation of different substrates often generates docking sites for effector proteins that harbor binding domains (chromo, tudor, PHD, MBT and ANK repeats). It has been proposed that the binding sites generated for different proteins by these post-translational modifcations mediate downstream effects on chromatin. Consistent with this theory, di- and tri-methylation of histone H3K9 facilitates the binding of heterochromatin protein HP1. The HP1 protein harbors a chromodomain that is responsible for the methyl-dependent interaction between HP1 and lysine 9 of histone H3. HP1 was first described in flies as a heterochromatin associated protein that can regulate gene silencing. It harbors a chromodomain that binds H3K9me3. In addition, it harbors a chromoshadow domain that interacts with a large number of proteins that are involved in heterochromatin formation and gene repression. There are three highly related HP1 isoforms. All three variants are associated with pericentric heterochromatin and it is not clear whether they have specific or redundant functions. MPP8 is also involved in the repression of gene in euchromatic regions (unpublished data) and like HP1 its chromodomain binds H3K9me3. […] Low-affinity protein-protein interactions (Kd in the single- to double-digit micromolar range) such as those discussed here have been very difficult to assay by traditional techniques such as fluorescence polarization or fluorescence resonance energy transfer. […]

| SMILES | activity change, negative = inhibition |
| --- | --- |
| CS(=O)(=O)Nc1cccc2[nH]ncc12 | inactive: 42.5% |
| O=c1ccc2ccc(OCc3ccccc3)cc2o1 | inactive: 40.5% |
| Cc1cc(=O)oc2cc(OCc3ccccc3)ccc12 | inactive: 114% |
